Among the data in PMC4318453 are binding values, retold here.

Sequences of proteins named here, by UniProt entry; tags and fusion partners are left off.
UniProt P12004: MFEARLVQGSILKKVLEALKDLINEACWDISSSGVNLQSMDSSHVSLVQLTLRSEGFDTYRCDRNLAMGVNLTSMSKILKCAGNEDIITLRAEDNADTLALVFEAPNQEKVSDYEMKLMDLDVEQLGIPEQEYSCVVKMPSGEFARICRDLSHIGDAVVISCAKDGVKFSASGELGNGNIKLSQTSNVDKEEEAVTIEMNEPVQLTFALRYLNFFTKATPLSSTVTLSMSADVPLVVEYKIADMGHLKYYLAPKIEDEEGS

Experiment [1] concerns the target endogenous PCNA of HEK293 cells (human (endogenous in HEK293)) (UniProt P12004). Kind of experiment: co-IP; lysates of transfected HEK293 cells (PBS + 0.1% Triton X100), immunoprecipitation with anti-PCNA antibodies and protein G-agarose, western blot.
The next experiment has as its target FLAG-tagged PCNA (UniProt P12004). The experiment is described as above.

No constants are given. Whether binding was seen depends on the method and setting. Binding seen in cells or lysates may run through a third protein. Some results given as binding are weak or reduced against the parent protein; the word gives no strength.

B1: BKPyV agnoprotein expressed in HEK293 cells (protein, UniProt P03085 1-66)
chain: MVLRQLSRQASVKVGKTWTGTKKRAQRIFIFILELLLEFCRGEDSVDGKNKSTTALPAVKDSVKDS
As for B1, the binding result (in experiment [1]; with FLAG-tagged PCNA) was “binds” in each case.
